No constants are given. Whether binding was seen depends on the method and setting. In cells and extracts the contact can be indirect. For some assays here: A result given as binding can be weak or reduced; the word gives no strength. For some assays here: Sequences can lack the tags named with a protein.

By UniProt entry, the sequences of proteins in these tests, tags left out. Where a name states a change or a piece, a line headed by the entry shows the natural chain unless it says otherwise.
UniProt Q9Z0U4: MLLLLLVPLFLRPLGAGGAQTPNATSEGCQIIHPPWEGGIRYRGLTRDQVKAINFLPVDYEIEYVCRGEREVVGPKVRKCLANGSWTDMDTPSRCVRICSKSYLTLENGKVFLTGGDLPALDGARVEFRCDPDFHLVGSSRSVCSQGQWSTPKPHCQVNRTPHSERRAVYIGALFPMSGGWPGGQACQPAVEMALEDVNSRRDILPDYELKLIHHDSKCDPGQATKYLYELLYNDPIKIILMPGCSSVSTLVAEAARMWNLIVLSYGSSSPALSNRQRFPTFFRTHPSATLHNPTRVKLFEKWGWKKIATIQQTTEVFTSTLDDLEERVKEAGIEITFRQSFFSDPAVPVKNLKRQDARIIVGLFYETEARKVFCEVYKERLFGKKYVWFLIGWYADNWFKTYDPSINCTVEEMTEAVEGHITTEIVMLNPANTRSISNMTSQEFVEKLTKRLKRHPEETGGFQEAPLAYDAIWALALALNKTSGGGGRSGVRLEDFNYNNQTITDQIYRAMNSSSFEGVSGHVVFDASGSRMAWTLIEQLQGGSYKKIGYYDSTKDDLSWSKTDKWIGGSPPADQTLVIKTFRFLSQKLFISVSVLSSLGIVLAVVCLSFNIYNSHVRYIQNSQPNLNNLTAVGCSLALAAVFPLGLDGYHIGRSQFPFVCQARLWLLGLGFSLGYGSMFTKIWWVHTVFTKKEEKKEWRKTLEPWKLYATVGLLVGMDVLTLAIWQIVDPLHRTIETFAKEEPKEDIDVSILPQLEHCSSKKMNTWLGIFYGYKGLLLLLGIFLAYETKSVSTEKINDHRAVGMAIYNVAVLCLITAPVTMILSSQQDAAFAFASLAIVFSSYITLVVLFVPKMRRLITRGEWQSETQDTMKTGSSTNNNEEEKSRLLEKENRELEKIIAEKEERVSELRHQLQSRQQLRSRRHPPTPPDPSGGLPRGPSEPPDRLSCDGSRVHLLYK
UniProt Q6WVG3: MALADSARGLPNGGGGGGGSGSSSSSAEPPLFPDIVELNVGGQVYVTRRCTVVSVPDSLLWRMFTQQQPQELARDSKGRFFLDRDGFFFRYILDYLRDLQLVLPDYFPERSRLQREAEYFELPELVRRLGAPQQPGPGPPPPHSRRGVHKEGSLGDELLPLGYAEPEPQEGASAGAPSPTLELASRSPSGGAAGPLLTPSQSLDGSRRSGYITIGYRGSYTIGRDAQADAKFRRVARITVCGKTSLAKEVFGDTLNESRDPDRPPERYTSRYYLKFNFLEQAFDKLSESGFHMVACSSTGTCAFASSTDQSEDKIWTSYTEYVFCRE

Two molecules from paper PMC3750179 can be followed below.

The target in one assay is Myc-GABAB1 (UniProt Q9Z0U4). Description: pull-down; surface biotinylation of transfected COS-1 cells, 120 min at 37 °C to allow internalization, surface biotin removed with glutathione, biotinylated proteins purified with NeutrAvidin-Sepharose, Western blot; the text calls it co-immunoprecipitation. A general note: In western blotting, separated proteins are transferred to a membrane and probed.

The target in another assay is HA-GABAB1-YFP (UniProt Q9Z0U4). Description: FRET or BRET; BRET donor saturation curves in intact COS-1 cells: fixed Rluc fusion (donor) and fixed GABAB2, increasing GABAB1-YFP (acceptor); coelenterazine h 5 μM; PBS or 100 μM baclofen for 15 min; fit with a single binding site. A general note: BRET reads energy transfer from a luciferase to a nearby fluorophore.

Regarding FLAG-KCTD12 (from UniProt Q6WVG3 1-327), in the assay with Myc-GABAB1, the binding entry is on record as “binds”.

B1: Rluc-KCTD10 (protein, UniProt Q922M3 1-315)
chain: MEEMSGDSVVSSAVPAAATRTTSFKGASPSSKYVKLNVGGALYYTTMQTLTKQDTMLKAMFSGRMEVLTDSEGWILIDRCGKHFGTILNYLRDGGVPLPESRREIEELLAEAKYYLVQGLLEECQAALQNKDTYEPFCKVPVITSSKEEQRLIATSNKPAVKLLYNRSNNKYSYTSNSDDNMLKNIELFDKLSLRFNGRVLFIKDVIGDEICCWSFYGQGRKIAEVCCTSIVYATEKKQTKVEFPEARIYEETLNILLYEAQDGRGPDNALLEATGGAAGRSHHLDEDEERERERIERVRRIHIKRPDDRAHLHQ
Consider B1, for which, in the assay with HA-GABAB1-YFP, the binding entry is reported as “no binding”.
